Reference: publication PMC7862700
This is a selection; strong and weak results do not stand in their true shares. At the low end of the ranking, values are background and their order means little.

The chains behind the UniProt entries cited, without tags or fusion partners. Where a name states a change or a piece, a line headed by the entry shows the natural chain unless it says otherwise.
UniProt P41161: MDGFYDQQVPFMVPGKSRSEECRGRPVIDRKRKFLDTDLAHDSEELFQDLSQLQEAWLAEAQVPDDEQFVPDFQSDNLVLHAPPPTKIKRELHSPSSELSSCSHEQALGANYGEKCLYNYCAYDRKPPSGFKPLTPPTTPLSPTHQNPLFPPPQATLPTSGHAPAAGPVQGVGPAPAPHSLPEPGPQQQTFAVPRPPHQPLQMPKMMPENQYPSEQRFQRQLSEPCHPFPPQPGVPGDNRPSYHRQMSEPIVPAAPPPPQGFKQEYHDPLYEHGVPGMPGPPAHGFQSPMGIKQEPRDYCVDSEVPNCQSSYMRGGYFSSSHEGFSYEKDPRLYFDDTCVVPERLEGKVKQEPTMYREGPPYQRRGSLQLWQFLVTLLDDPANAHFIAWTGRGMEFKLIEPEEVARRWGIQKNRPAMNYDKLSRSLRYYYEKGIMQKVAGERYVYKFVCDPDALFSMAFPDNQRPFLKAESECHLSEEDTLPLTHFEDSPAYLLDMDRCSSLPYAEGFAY

What follows are sequences tested against ETV5 (UniProt P41161) (assay: DAPPL (digital affinity profiling via proximity ligation, sequencing)). Settings: 10 mM Tris-HCl pH 7.5, 50 mM NaCl, 1 mM DTT, 4% glycerol, room temperature, 30 min; GST-TFs on glutathione beads, 16-mer random dsDNA library, 0.1% …; high values mean tight binding; double strand, one strand shown; scale: fold enrichment (6-mer frequency, TF over GST control).
Work on AAACCT yielded a binding signal of 1.13. With TTAATC the binding signal was 1.23. AAAACG showed a binding signal of 1.29. GCCTCT was tested, and the binding signal was 1.39. GCAAAT showed a binding signal of 1.1. TAGTTA showed a binding signal of 1.19. Sequence TCACCC has a binding signal of 1.18. With GTTCAC the binding signal was 1.2. With ACGGAT the binding signal was 1.32. With ATATTT the binding signal was 1.54. Work on GAAATT yielded a binding signal of 1.36. Sequence CTCACG has a binding signal of 1.4. With AGCCTA the binding signal was 1.09. For ATCCGG, the binding signal was 2.87. CATGTT showed a binding signal of 1.03. With CCCGCT the binding signal was 1.32. GTCCCG gave a binding signal of 1.19. CTTGCT was tested, and the binding signal was 1.39. With AACCAC the binding signal was 1.17. With GCGCTT the binding signal was 1.29. With CGCTTG the binding signal was 1.06. For TCCACC, the binding signal was 1.16. Work on GTAATC yielded a binding signal of 1.22. GTTCGC was tested, and the binding signal was 0.996. With TTTCTA the binding signal was 1.37. AAACGC was tested, and the binding signal was 1.28. Sequence TCCAAG has a binding signal of 1.07. GCTAGT gave a binding signal of 0.995. TGTCAT was tested, and the binding signal was 1.18. CTACCC gave a binding signal of 1.28. Work on CCTGCC yielded a binding signal of 1.34. Sequence TTATAT has a binding signal of 1.26. With GCGCCT the binding signal was 1.07. CGAGCA showed a binding signal of 1.1. Work on CCTTTG yielded a binding signal of 1.3. Sequence CAACTA has a binding signal of 1.26. With TGCCTT the binding signal was 1.36. With CTTGAA the binding signal was 1.09. Sequence CTATTT has a binding signal of 1.64. Work on TGTTTC yielded a binding signal of 1.83.
